Test results taken from PMC10184973.
Results are given in words; binding and its absence hold for the method and conditions named. Binding seen in cells or lysates may run through a third protein. Some results given as binding are weak or reduced against the parent protein; the word gives no strength.

Sequences of proteins named here, by UniProt entry; tags and fusion partners are left off.
UniProt Q92556: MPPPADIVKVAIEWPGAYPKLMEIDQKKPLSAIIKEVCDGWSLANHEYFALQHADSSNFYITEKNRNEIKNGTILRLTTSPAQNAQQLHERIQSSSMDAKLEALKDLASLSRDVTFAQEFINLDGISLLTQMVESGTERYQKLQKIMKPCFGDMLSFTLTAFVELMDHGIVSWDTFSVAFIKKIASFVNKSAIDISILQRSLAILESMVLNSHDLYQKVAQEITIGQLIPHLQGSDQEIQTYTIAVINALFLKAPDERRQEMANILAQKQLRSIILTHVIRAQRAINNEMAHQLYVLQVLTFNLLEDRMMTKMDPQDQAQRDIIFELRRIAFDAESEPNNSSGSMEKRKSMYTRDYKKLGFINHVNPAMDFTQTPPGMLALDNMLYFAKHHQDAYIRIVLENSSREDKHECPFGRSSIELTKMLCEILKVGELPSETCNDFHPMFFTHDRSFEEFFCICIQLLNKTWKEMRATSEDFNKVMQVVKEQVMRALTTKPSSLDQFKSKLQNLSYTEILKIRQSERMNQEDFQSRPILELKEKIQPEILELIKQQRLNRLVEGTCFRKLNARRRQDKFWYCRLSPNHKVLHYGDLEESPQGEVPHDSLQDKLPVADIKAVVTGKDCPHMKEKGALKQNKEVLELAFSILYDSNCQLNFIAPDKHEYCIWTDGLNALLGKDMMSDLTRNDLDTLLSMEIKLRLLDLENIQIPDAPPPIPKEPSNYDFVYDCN
UniProt Q8IZD9: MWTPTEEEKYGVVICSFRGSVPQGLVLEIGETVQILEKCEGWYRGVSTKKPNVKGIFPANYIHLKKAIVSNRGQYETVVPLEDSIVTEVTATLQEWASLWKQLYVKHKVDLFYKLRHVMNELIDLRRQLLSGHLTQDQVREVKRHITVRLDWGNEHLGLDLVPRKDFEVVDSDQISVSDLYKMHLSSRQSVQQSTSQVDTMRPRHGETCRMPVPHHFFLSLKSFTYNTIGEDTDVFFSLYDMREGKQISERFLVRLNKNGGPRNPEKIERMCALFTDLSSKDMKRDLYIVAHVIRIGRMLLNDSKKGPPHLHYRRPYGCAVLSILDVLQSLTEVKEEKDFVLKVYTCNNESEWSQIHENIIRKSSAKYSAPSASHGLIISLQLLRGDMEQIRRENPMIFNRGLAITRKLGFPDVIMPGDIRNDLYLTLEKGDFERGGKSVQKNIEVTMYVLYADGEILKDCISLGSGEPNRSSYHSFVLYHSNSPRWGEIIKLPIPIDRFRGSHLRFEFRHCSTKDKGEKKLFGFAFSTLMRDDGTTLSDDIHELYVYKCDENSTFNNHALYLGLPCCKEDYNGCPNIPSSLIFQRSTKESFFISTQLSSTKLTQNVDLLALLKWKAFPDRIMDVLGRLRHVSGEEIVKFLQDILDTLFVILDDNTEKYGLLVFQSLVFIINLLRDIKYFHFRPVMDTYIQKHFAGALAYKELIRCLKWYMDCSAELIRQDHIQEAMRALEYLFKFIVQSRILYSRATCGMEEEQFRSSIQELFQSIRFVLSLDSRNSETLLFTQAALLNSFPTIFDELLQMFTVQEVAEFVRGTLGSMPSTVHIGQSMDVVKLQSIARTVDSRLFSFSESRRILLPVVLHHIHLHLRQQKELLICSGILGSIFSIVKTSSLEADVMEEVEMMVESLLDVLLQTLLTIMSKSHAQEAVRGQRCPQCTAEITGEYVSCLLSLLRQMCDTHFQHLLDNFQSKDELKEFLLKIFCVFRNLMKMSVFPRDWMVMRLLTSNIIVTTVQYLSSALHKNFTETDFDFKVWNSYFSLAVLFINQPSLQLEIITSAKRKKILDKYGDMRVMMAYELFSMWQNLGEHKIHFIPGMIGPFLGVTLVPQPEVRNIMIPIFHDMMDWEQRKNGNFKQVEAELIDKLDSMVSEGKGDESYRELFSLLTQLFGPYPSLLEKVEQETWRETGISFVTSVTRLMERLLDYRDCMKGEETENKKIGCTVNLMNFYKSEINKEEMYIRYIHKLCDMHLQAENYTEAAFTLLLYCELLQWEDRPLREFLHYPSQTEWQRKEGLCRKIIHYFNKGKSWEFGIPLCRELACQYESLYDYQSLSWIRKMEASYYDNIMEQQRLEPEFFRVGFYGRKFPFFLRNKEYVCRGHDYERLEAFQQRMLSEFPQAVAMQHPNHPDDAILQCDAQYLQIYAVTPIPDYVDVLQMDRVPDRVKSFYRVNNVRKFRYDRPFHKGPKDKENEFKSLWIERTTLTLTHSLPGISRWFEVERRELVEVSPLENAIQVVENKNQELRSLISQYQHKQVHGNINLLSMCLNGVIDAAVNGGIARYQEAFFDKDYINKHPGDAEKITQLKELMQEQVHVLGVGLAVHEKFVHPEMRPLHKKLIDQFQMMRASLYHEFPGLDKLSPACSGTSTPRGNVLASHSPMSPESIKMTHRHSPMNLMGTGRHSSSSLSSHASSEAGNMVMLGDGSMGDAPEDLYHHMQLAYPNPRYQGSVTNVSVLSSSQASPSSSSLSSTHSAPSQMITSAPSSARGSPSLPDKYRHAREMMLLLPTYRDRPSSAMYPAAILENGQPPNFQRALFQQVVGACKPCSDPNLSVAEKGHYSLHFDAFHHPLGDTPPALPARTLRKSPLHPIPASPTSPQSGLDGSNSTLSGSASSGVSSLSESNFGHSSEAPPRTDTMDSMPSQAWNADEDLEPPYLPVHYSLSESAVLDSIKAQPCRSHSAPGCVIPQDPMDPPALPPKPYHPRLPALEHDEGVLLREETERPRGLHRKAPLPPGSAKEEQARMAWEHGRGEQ

Legend:
[1] = target: Elmo1 Halo Tag (Engulfment and cell motility protein 1 with Halo Tag fused at its C-terminus) (UniProt Q92556); test: FRET or BRET; intermolecular NanoBRET in 293A cells co-transfected with Nano Luc DOCK3 and Elmo1 Halo Tag plasmids; 100 nM HaloTag NanoBRET 618 Ligand; 4 h with compounds at 37 °C, 5% CO2; donor emission at 460 nm and acceptor emission measured
myc-GST-hElmo (human) = myc-GST-hElmo (human) (UniProt Q92556); test: pull-down; myc-GST-Elmo held on Glutathione Sepharose 4B, washed, then incubated with Cos7 lysate expressing myc-hDOCK3 in the presence or absence of DS72062539 (10 µM) for 10 min at 4 °C; immunoblot with anti-myc antibody; only the target purified

Row | Substance | binding [1] | binding (myc-GST-hElmo (human))
1 | Nano Luc DOCK3 (Dedicator of cytokinesis 3 with Nano Luc fused at its N-terminus) (from UniProt Q8IZD9 1-2030) | binds | 
2 | myc-tagged hDOCK3 (from UniProt Q8IZD9 1-2030) |  | binds
